Results are given in words; binding and its absence hold for the method and conditions named. Binding seen in cells or lysates may run through a third protein. Some binding calls cover weakened binding; strength is not graded here. One block for each substance: values may come before it.
What was measured:
[1] = molecular target: endogenous FoxO3a (human (endogenous in AC16)) (UniProt O43524); experiment: co-IP; endogenous proteins in AC16 cell lysates; reciprocal immunoprecipitation with an antibody against one partner (IgG control in Fig. 4g, h), co-precipitated partner detected by immunoblotting
[2] = molecular target: endogenous REGγ (human (endogenous in AC16)) (UniProt P61289); experiment: as above
[3] = molecular target: endogenous PP2Acα (human (endogenous in AC16)) (UniProt P67775); experiment: as above
[4] = molecular target: Flag-REGγ (UniProt P61289); experiment: co-IP; 293T cells transiently transfected with a Flag-tagged and an HA-tagged protein (or Flag vector control); immunoprecipitation with FLAG-M2 agarose beads, immunoblotting
[5] = molecular target: Flag-PP2Acα (UniProt P67775); experiment: as above

The chains behind the UniProt entries cited, without tags or fusion partners.
UniProt O43524: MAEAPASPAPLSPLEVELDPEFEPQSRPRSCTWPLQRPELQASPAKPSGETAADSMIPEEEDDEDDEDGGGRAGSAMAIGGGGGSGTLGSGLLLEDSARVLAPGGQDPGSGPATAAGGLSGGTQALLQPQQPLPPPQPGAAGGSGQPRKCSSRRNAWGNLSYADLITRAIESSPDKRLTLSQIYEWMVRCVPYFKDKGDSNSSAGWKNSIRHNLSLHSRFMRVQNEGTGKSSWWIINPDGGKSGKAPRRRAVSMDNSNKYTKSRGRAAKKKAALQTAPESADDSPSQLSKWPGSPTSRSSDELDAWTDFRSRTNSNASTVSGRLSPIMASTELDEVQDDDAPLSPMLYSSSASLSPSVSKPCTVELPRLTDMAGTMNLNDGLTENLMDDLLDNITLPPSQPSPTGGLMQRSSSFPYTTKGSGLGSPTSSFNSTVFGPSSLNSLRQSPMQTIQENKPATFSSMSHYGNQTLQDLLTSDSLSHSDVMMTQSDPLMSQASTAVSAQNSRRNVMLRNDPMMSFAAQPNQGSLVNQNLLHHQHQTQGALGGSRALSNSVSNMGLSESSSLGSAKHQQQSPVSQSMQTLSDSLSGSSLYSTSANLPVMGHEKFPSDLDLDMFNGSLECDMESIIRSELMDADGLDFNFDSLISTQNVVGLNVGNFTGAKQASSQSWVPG
UniProt P61289: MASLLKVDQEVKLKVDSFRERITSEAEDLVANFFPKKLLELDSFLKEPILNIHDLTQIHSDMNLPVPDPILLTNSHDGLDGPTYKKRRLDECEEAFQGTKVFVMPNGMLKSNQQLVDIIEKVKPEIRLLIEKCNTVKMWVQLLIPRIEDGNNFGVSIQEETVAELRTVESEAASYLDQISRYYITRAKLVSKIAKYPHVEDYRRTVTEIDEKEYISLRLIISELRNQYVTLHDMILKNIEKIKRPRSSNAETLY
UniProt P67775: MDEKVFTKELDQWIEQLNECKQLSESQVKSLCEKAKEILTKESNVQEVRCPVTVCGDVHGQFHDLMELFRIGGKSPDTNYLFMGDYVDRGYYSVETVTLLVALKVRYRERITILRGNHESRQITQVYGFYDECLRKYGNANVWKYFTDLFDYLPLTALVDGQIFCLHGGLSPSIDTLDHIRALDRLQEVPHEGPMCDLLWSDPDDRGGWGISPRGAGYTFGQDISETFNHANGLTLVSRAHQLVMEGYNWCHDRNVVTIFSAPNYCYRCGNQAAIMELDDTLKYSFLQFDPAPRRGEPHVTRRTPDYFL

Substance: endogenous PP2Acα (from UniProt P67775 1-309)
binding [1]: binds
binding [2]: binds

Substance: endogenous REGγ (from UniProt P61289 1-254)
binding [3]: binds

Substance: HA-REGγ (from UniProt P61289 1-254)
binding [5]: binds

Other lines, results leading:

binding [4]: binds
Substance: HA-PP2Acα (from UniProt P67775 1-309)

binding [3]: binds
Substance: endogenous FoxO3a (from UniProt O43524 1-673)

— article PMC7494903
